Results are given in words; binding and its absence hold for the method and conditions named. In cells and extracts the contact can be indirect. Here binding means that the protein was enriched with, or labelled near, the bait; the list need not be complete. For some of these results: A no says only that the protein was not detected with the bait. For some of these results: Sequences can lack the tags named with a protein.
How the values were obtained:
[1] = molecular target: T1, myc-BirA-plakophilin 2a (UniProt Q99959); assay: proximity labelling; BioID: bait tagged with BirA(R118G) and myc, stably expressed in MDCK cells; confluent for 1 day (Ca^2+-dependent desmosomes) or 5 days (hyper-adhesive desmosomes), 100 μM biotin for the last 16 h; streptavidin beads, LC-MS/MS; SAINTexpress against BirA-myc control, BFDR ≤0.05
T1 sequence: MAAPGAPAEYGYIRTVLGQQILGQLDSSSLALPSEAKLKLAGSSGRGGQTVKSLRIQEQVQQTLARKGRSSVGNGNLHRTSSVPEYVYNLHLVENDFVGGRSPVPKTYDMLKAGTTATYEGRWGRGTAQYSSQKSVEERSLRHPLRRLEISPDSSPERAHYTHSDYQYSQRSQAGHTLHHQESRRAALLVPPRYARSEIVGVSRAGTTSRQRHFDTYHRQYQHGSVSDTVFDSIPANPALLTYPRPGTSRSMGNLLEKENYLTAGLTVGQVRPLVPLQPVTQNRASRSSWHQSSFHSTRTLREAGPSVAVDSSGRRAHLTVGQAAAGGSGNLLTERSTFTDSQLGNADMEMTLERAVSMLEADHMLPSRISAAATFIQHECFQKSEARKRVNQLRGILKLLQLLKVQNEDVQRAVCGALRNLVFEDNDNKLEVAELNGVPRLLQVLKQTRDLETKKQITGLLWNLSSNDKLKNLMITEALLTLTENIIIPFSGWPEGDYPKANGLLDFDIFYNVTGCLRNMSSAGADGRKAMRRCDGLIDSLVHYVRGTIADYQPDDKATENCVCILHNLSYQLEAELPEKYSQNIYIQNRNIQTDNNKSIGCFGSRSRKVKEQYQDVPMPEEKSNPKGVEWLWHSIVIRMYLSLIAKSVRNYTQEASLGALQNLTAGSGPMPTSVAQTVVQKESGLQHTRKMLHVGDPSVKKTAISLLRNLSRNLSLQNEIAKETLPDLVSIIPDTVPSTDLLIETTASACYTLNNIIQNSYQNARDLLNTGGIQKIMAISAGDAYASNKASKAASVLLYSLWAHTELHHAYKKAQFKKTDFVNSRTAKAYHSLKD

The chains behind the UniProt entries cited, without tags or fusion partners. Where a name states a change or a piece, a line headed by the entry shows the natural chain unless it says otherwise.
UniProt Q02487: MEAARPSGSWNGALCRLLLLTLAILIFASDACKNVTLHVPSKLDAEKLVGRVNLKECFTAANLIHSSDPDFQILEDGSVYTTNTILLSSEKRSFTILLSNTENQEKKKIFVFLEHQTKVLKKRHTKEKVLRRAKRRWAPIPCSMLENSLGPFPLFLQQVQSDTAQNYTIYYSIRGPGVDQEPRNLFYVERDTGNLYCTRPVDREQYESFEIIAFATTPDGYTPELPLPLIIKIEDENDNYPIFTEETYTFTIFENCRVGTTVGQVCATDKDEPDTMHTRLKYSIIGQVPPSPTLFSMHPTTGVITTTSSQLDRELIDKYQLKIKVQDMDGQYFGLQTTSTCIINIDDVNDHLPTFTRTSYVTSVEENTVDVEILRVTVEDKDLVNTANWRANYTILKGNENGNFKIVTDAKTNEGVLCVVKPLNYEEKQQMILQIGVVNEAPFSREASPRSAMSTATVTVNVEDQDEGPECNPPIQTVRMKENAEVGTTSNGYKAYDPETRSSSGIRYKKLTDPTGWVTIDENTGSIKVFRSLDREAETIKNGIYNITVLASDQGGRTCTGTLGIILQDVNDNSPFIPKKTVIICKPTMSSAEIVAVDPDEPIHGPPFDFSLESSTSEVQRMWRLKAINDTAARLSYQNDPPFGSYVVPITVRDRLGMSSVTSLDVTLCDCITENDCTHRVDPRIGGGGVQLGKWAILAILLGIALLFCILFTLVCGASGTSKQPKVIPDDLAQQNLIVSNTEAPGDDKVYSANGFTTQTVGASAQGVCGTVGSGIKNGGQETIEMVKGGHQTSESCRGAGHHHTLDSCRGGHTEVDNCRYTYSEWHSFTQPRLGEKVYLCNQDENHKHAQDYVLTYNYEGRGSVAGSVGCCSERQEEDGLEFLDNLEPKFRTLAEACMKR
UniProt A0A8I3MR05: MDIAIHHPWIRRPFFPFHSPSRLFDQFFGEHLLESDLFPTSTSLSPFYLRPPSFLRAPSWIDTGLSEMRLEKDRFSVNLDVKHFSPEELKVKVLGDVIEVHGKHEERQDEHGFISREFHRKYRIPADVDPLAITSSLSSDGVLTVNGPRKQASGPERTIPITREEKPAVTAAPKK
UniProt P42929: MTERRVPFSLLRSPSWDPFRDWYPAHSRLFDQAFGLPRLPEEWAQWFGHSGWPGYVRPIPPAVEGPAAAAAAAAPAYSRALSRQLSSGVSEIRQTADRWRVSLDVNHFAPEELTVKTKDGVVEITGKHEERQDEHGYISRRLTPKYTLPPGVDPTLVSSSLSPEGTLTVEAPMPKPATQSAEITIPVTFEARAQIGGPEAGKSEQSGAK
UniProt A0A8I3MM93: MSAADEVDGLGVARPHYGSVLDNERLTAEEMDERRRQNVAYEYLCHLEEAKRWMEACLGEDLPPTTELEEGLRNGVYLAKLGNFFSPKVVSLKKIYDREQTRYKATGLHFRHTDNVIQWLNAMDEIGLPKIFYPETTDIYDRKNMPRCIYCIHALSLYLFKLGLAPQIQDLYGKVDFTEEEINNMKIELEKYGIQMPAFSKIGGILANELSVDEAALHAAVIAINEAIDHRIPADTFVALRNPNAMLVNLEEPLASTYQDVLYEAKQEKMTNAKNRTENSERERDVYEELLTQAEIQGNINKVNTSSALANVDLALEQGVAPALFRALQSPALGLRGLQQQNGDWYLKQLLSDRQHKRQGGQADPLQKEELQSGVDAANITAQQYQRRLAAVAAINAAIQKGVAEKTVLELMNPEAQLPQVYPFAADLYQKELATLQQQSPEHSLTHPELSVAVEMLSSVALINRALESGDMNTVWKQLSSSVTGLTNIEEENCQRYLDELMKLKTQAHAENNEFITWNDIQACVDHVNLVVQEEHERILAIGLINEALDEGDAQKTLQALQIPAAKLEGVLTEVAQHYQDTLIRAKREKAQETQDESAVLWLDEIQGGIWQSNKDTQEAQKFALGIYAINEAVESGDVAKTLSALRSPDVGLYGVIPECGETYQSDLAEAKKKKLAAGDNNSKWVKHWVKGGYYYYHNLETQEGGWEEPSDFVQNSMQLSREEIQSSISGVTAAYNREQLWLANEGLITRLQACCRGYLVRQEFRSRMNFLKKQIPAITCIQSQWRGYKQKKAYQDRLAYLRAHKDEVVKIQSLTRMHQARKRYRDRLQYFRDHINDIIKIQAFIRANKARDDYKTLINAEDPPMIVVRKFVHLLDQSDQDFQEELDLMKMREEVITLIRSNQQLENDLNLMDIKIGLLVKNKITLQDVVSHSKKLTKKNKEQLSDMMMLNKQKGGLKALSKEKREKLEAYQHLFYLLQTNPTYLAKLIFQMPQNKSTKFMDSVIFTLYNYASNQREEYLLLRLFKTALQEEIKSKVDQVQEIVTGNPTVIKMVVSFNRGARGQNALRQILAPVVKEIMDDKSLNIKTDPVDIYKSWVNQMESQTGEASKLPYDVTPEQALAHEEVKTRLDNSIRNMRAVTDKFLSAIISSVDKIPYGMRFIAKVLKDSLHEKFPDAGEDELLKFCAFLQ
UniProt A0A8I3NAW5: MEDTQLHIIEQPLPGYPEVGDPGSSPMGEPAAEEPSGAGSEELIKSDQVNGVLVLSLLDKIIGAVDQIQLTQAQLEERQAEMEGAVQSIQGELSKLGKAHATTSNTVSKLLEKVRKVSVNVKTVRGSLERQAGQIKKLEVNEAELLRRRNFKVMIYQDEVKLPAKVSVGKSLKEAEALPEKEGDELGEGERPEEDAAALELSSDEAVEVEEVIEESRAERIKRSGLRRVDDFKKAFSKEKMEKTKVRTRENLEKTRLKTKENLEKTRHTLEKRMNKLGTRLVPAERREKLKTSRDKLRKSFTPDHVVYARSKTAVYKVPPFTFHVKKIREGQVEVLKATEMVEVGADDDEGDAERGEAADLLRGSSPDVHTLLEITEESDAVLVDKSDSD
UniProt A0A8I3N1D8: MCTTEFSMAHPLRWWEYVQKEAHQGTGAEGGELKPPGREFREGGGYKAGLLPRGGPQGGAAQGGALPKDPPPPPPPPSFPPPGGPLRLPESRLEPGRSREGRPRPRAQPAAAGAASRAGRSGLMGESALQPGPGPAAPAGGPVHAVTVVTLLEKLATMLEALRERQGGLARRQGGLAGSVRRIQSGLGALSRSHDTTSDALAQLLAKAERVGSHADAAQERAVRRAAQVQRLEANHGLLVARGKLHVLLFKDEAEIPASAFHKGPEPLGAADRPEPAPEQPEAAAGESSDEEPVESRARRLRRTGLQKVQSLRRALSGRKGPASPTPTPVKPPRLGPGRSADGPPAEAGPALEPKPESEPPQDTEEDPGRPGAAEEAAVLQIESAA
UniProt A0A8I3PHM6: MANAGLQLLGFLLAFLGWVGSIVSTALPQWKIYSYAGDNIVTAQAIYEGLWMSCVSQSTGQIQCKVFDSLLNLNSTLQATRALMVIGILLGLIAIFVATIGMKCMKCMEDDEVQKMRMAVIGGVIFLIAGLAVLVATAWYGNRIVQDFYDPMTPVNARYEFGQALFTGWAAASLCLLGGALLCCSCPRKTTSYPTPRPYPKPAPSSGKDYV
UniProt A0A8I3P9Q5: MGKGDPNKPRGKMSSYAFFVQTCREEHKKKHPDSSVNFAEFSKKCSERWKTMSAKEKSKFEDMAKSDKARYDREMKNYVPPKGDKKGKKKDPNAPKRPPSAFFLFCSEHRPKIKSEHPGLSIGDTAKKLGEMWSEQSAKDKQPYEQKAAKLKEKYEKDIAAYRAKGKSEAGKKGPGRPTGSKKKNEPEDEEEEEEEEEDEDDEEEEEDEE
UniProt A0A8I3NQ19: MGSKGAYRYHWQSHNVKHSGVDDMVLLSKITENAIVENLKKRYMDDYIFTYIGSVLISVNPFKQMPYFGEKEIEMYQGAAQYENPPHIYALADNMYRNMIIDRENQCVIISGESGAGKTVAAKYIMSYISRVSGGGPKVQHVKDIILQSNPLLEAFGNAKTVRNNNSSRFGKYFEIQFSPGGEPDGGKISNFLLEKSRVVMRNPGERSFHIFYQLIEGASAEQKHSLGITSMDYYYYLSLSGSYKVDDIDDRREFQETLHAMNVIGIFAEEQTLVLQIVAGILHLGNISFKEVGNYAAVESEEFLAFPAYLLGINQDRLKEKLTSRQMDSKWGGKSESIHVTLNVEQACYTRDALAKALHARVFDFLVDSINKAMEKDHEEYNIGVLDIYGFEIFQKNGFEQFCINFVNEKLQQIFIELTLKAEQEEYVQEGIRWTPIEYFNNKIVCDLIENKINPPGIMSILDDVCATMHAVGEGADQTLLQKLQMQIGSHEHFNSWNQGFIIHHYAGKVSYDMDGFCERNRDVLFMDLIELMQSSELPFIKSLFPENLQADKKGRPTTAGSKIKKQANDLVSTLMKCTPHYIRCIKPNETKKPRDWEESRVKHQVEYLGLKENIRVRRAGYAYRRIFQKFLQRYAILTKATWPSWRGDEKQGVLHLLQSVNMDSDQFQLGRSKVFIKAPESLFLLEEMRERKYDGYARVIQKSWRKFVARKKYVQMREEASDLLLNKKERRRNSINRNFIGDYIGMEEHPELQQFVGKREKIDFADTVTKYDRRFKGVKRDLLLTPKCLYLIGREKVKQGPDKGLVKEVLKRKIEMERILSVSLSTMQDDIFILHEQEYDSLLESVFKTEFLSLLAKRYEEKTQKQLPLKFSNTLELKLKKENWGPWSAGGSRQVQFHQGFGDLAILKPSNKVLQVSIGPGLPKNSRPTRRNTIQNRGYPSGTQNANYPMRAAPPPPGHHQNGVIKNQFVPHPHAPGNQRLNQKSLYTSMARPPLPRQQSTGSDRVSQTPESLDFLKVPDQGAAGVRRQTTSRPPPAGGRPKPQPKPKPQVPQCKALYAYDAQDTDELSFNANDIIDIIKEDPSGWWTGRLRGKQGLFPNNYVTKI
UniProt P60467: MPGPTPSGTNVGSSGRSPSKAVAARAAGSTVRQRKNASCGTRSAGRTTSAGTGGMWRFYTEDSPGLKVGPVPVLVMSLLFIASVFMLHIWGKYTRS
UniProt Q6YKA4: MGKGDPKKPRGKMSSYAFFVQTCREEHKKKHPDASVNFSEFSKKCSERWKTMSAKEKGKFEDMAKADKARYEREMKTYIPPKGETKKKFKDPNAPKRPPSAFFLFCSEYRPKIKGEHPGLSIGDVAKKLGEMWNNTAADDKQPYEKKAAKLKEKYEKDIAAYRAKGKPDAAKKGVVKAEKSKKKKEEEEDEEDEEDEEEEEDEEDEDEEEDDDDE

[2] = molecular target: T2, plakoglobin tagged with BirA-myc (PG∗; merged data of myc-BirA-PG and PG-BirA-myc) (UniProt P14923); assay: as above
T2 sequence: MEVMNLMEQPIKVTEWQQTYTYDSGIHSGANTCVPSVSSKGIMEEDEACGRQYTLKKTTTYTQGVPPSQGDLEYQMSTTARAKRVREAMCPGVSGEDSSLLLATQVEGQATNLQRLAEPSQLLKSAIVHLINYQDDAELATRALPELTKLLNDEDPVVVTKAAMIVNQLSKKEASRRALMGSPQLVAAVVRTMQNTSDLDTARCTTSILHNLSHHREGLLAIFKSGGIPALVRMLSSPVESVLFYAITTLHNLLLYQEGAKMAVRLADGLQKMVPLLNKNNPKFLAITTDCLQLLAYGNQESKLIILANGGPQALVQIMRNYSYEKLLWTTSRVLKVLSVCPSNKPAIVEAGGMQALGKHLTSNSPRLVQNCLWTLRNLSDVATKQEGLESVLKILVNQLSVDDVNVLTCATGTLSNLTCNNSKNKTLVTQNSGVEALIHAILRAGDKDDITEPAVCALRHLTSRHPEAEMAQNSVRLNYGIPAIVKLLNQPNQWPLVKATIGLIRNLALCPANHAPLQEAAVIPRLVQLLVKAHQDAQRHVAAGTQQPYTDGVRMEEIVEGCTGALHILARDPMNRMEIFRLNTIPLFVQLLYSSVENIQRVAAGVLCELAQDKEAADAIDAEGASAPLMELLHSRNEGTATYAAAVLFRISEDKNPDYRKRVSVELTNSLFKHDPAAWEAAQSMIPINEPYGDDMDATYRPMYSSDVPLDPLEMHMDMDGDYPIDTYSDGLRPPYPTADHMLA

[3] = molecular target: desmocollin 2a-BirA-myc (UniProt Q02487); assay: as above
[4] = molecular target: desmocollin 2a-BirA-myc (UniProt Q02487); assay: condition: only Ca^2+-dependent condition (1 day confluent); proximity labelling; BioID as a1, only the cells confluent for 1 day (Ca^2+-dependent desmosomes)
[5] = molecular target: desmocollin 2a-BirA-myc (UniProt Q02487); assay: condition: only hyper-adhesive condition (5 days confluent); proximity labelling; BioID as a1, only the cells confluent for 5 days (hyper-adhesive desmosomes)

Row | Substance | binding [1] | binding [2] | other results
1 | CRYAB (from UniProt A0A8I3MR05 1-175) | binds |  | 
2 | HSPB1 (from UniProt P42929 1-209) | binds |  | 
3 | IQ calmodulin-binding motif containing GTPase-activating protein 1 (from UniProt A0A8I3MM93) |  | binds | 
4 | adenomatous polyposis coli (APC) protein (dog (endogenous in MDCK)) |  | binds | 
5 | afadin (dog (endogenous in MDCK)) |  | binds | 
6 | annexin A5 (dog (endogenous in MDCK)) | binds | binds | 
7 | caveolae-associated protein 1 (from UniProt A0A8I3NAW5 1-390) |  |  | binding [3]: binds; binding [4]: no binding
8 | caveolae-associated protein 3 (from UniProt A0A8I3N1D8 1-386) |  |  | binding [3]: binds; binding [4]: no binding
9 | claudin 1 (from UniProt A0A8I3PHM6 1-211) |  |  | binding [3]: binds; binding [5]: no binding
10 | desmoglein 2 (dog (endogenous in MDCK)) | binds | binds | 
11 | high mobility group protein 2 (from UniProt A0A8I3P9Q5 1-210) | binds | binds | binding [3]: binds
12 | moesin (dog (endogenous in MDCK)) |  | binds | 
13 | myosin 1E (from UniProt A0A8I3NQ19 1-1108) |  | binds | 
14 | nectin 2 (dog (endogenous in MDCK)) |  | binds | 
15 | nectin 3 (dog (endogenous in MDCK)) |  | binds | 
16 | p120-catenin (dog (endogenous in MDCK)) | binds | binds | 
17 | plakophilin 3 (dog (endogenous in MDCK)) | binds | binds | 
18 | plakophilin 4 (dog (endogenous in MDCK)) | binds | binds | 
19 | sec61 translocon β (from UniProt P60467 1-96) |  |  | binding [3]: binds; binding [5]: no binding

The next lines start with results.

Row | binding [1] | binding [2] | Substance | other results
20 |  | binds | Calsyntenin-1 (dog (endogenous in MDCK)) | 
21 | binds | binds | KIAA1217 (dog (endogenous in MDCK)) | 
22 | no binding | no binding | Lamin A/C (dog (endogenous in MDCK)) | 
23 |  | binds | ankyrin 3 (dog (endogenous in MDCK)) | 
24 | binds | binds | erbin (dog (endogenous in MDCK)) | 
25 | binds | binds | high mobility group protein 1 (from UniProt Q6YKA4 1-215) | binding [3]: binds
26 | binds | binds | high mobility group protein 3 (dog (endogenous in MDCK)) | 
27 |  | binds | myosin 1B (dog (endogenous in MDCK)) | 
28 | binds | binds | α-catenin (dog (endogenous in MDCK)) | 
